# Measurements published in the supplement of paper PMC8728848.
# This is one part of the list.
# Assays:
# Experiment in all cases: glycan array binding signal (z-score within array); higher = stronger binding
# Details in all cases: glycan notation: IUPAC condensed, linker removed
# Fuc(a1-2)Gal = target: Fuc(a1-2)Gal
# Summary of the method: (§1)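 From the Consortium for Functional Glycomics database, 3228 arrays were curated, keeping only those whose protein sequence was available. Binding is given as a within-array Z-score averaged across arrays sharing a protein sequence and across linkers. Negative Z-scores can be read as non-binding.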
# Fuc(a1-2)Gal(b1-3)GalNAc = target: Fuc(a1-2)Gal(b1-3)GalNAc
# Summary of the method: as §1
# [1] = target: Fuc(a1-2)Gal(b1-3)GalNAc(a1-3)[Fuc(a1-2)]Gal(b1-4)Glc
# Summary of the method: as §1
# [2] = target: Fuc(a1-2)Gal(b1-3)GalNAc(a1-3)[Fuc(a1-2)]Gal(b1-4)GlcNAc
# Summary of the method: as §1
# [3] = target: Fuc(a1-2)Gal(b1-3)GalNAc(b1-3)Gal
# Summary of the method: as §1
# [4] = target: Fuc(a1-2)Gal(b1-3)GalNAc(b1-3)Gal(a1-4)Gal(b1-4)Glc
# Summary of the method: as §1
# [5] = target: Fuc(a1-2)Gal(b1-3)GalNAc(b1-4)[Neu5Ac(a2-3)]Gal(b1-4)Glc
# Summary of the method: as §1
# Fuc(a1-2)Gal(b1-3)GlcNAc = target: Fuc(a1-2)Gal(b1-3)GlcNAc
# Summary of the method: as §1
# [6] = target: Fuc(a1-2)Gal(b1-3)GlcNAc(b1-2)Man(a1-3)[Fuc(a1-2)Gal(b1-3)GlcNAc(b1-2)Man(a1-6)]Man(b1-4)GlcNAc(b1-4)GlcNAc
# Summary of the method: as §1
# [7] = target: Fuc(a1-2)Gal(b1-3)GlcNAc(b1-2)Man(a1-3)[Fuc(a1-2)Gal(b1-3)GlcNAc(b1-2)Man(a1-6)]Man(b1-4)GlcNAc(b1-4)[Fuc(a1-6)]GlcNAc
# Summary of the method: as §1
# [8] = target: Fuc(a1-2)Gal(b1-3)GlcNAc(b1-3)Gal(b1-4)Glc
# Summary of the method: as §1
# [9] = target: Fuc(a1-2)Gal(b1-3)GlcNAc(b1-3)GalNAc
# Summary of the method: as §1
# [10] = target: Fuc(a1-2)Gal(b1-3)GlcNAc(b1-3)[Fuc(a1-2)Gal(b1-3)GlcNAc(b1-6)]GalNAc
# Summary of the method: as §1
# [11] = target: Fuc(a1-2)Gal(b1-3)GlcNAc(b1-3)[Gal(b1-4)GlcNAc(b1-6)]Gal(b1-4)Glc
# Summary of the method: as §1
# [12] = target: Fuc(a1-2)Gal(b1-3)GlcNAc(b1-3)[Neu5Ac(a2-6)Gal(b1-4)GlcNAc(b1-6)]Gal(b1-4)Glc
# Summary of the method: as §1
# [13] = target: Fuc(a1-2)Gal(b1-3)GlcNAc6S
# Summary of the method: as §1
# [14] = target: Fuc(a1-2)Gal(b1-3)[Fuc(a1-4)]GlcNAc
# Summary of the method: as §1
# [15] = target: Fuc(a1-2)Gal(b1-3)[Fuc(a1-4)]GlcNAc(b1-2)Man(a1-3)[Fuc(a1-2)Gal(b1-3)[Fuc(a1-4)]GlcNAc(b1-2)Man(a1-3)]Man(b1-4)GlcNAc(b1-4)GlcNAc
# Summary of the method: as §1
# [16] = target: Fuc(a1-2)Gal(b1-3)[Fuc(a1-4)]GlcNAc(b1-2)Man(a1-3)[Fuc(a1-2)Gal(b1-3)[Fuc(a1-4)]GlcNAc(b1-2)Man(a1-6)]Man(b1-4)GlcNAc(b1-4)[Fuc(a1-6)]GlcNAc(b1-4)[Fuc(a1-6)]GlcNAc
# Summary of the method: as §1
# [17] = target: Fuc(a1-2)Gal(b1-3)[Fuc(a1-4)]GlcNAc(b1-3)[Fuc(a1-3)[Gal(b1-4)]GlcNAc(b1-6)]Gal(b1-4)Glc
# Summary of the method: as §1
# [18] = target: Fuc(a1-2)Gal(b1-3)[Fuc(a1-4)]GlcNAc(b1-3)[Gal(b1-4)GlcNAc(b1-6)]Gal(b1-4)Glc
# Summary of the method: as §1
# Fuc(a1-2)Gal(b1-4)Glc = target: Fuc(a1-2)Gal(b1-4)Glc
# Summary of the method: as §1
# Fuc(a1-2)Gal(b1-4)Glc6S = target: Fuc(a1-2)Gal(b1-4)Glc6S
# Summary of the method: as §1
# Fuc(a1-2)Gal(b1-4)GlcNAc = target: Fuc(a1-2)Gal(b1-4)GlcNAc
# Summary of the method: as §1
# [19] = target: Fuc(a1-2)Gal(b1-4)GlcNAc(b1-2)Man
# Summary of the method: as §1
# [20] = target: Fuc(a1-2)Gal(b1-4)GlcNAc(b1-2)Man(a1-3)[Fuc(a1-2)Gal(b1-4)GlcNAc(b1-2)Man(a1-6)]Man(b1-4)GlcNAc(b1-4)GlcNAc
# Summary of the method: as §1
# [21] = target: Fuc(a1-2)Gal(b1-4)GlcNAc(b1-2)Man(a1-3)[Fuc(a1-2)Gal(b1-4)GlcNAc(b1-2)Man(a1-6)]Man(b1-4)GlcNAc(b1-4)[Fuc(a1-6)]GlcNAc
# Summary of the method: as §1
# [22] = target: Fuc(a1-2)Gal(b1-4)GlcNAc(b1-2)[Fuc(a1-2)Gal(b1-4)GlcNAc(b1-4)]Man(a1-3)[Fuc(a1-2)Gal(b1-4)GlcNAc(b1-2)Man(a1-6)]Man(b1-4)GlcNAc(b1-4)GlcNAc
# Summary of the method: as §1
# [23] = target: Fuc(a1-2)Gal(b1-4)GlcNAc(b1-3)Gal(b1-4)GlcNAc
# Summary of the method: as §1
# [24] = target: Fuc(a1-2)Gal(b1-4)GlcNAc(b1-3)Gal(b1-4)GlcNAc(b1-2)Man(a1-3)[Fuc(a1-2)Gal(b1-4)GlcNAc(b1-3)Gal(b1-4)GlcNAc(b1-2)Man(a1-6)]Man(b1-4)GlcNAc(b1-4)GlcNAc
# Summary of the method: as §1
binder,measurement,setting,value
LF82 (Escherichia coli) (protein) ADWGPCRTASGDPFIFVTSFTKNIQNPTDNVTGQTYPDFYQWALGDKYSGVCECPSPNPTEARPTLYKTESTLAAGHNSTYFKITNNLEVSTRVYIANVGNVQVPFINKSNSQPGRECDQPTFGWTTGSKGQLSLYIAKPFVGEQNIPQTIIVSVFGTKKENVYSSVPISQVLLSGKVTVTQGCELAAGTSLDIDFGEYQAHDFKGRTGQPPQNVQKIQKELTFNCTNISDGVHIYLSLEGTPNAAYPSAISLGNADVGAVIEDGKGNILKPNDSNSLLEMNPGSLYEYVKRKVTTTITAYPVSTTGKLPAAGDYSGVATMHVELDGGGGGGGGGGATTDLGAKGTLKFSLKISQGHHHHHH,glycan array binding signal (z-score),Fuc(a1-2)Gal,-0.31
same,glycan array binding signal (z-score),Fuc(a1-2)Gal(b1-3)GalNAc,0.017
same,glycan array binding signal (z-score),[1],-0.382
same,glycan array binding signal (z-score),[2],-1.45
same,glycan array binding signal (z-score),[3],1.34
same,glycan array binding signal (z-score),[4],-0.902
same,glycan array binding signal (z-score),[5],3.03
same,glycan array binding signal (z-score),Fuc(a1-2)Gal(b1-3)GlcNAc,-0.323
same,glycan array binding signal (z-score),[6],1.37
same,glycan array binding signal (z-score),[7],-0.308
same,glycan array binding signal (z-score),[8],-0.758
same,glycan array binding signal (z-score),[9],-0.512
same,glycan array binding signal (z-score),[10],1.56
same,glycan array binding signal (z-score),[11],-1.77
same,glycan array binding signal (z-score),[12],-0.6
same,glycan array binding signal (z-score),[13],2.87
same,glycan array binding signal (z-score),[14],0.56
same,glycan array binding signal (z-score),[15],-0.701
same,glycan array binding signal (z-score),[16],-0.012
same,glycan array binding signal (z-score),[17],0.018
same,glycan array binding signal (z-score),[18],0.103
same,glycan array binding signal (z-score),Fuc(a1-2)Gal(b1-4)Glc,0.034
same,glycan array binding signal (z-score),Fuc(a1-2)Gal(b1-4)Glc6S,0.084
same,glycan array binding signal (z-score),Fuc(a1-2)Gal(b1-4)GlcNAc,0.558
same,glycan array binding signal (z-score),[19],0.247
same,glycan array binding signal (z-score),[20],-0.511
same,glycan array binding signal (z-score),[21],0.081
same,glycan array binding signal (z-score),[22],0.092
same,glycan array binding signal (z-score),[23],-0.593
same,glycan array binding signal (z-score),[24],0.375

# Random excerpt: 2 entries already listed.
binder,measurement,setting,value
LF82 (Escherichia coli) (protein) ADWGPCRTASGDPFIFVTSFTKNIQNPTDNVTGQTYPDFYQWALGDKYSGVCECPSPNPTEARPTLYKTESTLAAGHNSTYFKITNNLEVSTRVYIANVGNVQVPFINKSNSQPGRECDQPTFGWTTGSKGQLSLYIAKPFVGEQNIPQTIIVSVFGTKKENVYSSVPISQVLLSGKVTVTQGCELAAGTSLDIDFGEYQAHDFKGRTGQPPQNVQKIQKELTFNCTNISDGVHIYLSLEGTPNAAYPSAISLGNADVGAVIEDGKGNILKPNDSNSLLEMNPGSLYEYVKRKVTTTITAYPVSTTGKLPAAGDYSGVATMHVELDGGGGGGGGGGATTDLGAKGTLKFSLKISQGHHHHHH,glycan array binding signal (z-score),[13],2.87
same,glycan array binding signal (z-score),[14],0.56
